From US20030119727A1 (Genentech, published 2003)
No constants are given. Whether binding was seen depends on the method and setting. Some results given as binding are weak or reduced against the parent protein; the word gives no strength.

Protein sequences, listed by entry. Tags and fused reporters are not part of them. Lines headed by an entry give the natural chain unless they say otherwise; changes in a name come on top.
UniProt P08709: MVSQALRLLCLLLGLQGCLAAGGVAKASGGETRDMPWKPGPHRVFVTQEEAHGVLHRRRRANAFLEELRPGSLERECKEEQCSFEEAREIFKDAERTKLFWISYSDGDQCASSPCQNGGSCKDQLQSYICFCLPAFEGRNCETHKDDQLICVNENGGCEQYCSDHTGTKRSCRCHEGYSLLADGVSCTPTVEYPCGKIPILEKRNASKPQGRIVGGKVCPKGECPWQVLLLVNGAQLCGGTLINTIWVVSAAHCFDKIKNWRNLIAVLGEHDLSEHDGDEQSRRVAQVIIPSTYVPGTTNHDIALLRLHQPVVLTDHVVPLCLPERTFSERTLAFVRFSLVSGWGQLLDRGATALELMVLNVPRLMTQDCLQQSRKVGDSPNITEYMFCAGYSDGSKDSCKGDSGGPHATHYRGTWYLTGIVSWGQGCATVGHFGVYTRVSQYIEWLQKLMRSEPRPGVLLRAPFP
UniProt P13726: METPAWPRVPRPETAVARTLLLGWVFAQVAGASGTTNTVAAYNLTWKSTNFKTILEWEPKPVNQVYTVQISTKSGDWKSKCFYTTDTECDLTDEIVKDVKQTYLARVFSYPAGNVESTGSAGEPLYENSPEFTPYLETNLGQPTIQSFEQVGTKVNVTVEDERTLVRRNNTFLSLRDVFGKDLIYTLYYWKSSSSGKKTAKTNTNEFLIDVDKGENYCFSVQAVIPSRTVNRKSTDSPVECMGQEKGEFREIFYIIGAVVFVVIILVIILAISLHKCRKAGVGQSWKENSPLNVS

Columns and labels:
[1] = biological target: recombinant human Factor VIIa (human) (UniProt P08709); assay: FVIIa Binding ELISA, competition with TF147b
[2] = biological target: covalently active site blocked TF-FVIIa (active site of FVIIa alkylated with biotinylated EGR chloromethylketone) (human) (UniProt P13726+P08709); assay: phage binding to coated wells

B1: peptide TF151 (peptide)
peptide: ALCDNPRIDRWYCQFVEG
B1 was tested, and the binding [1] was “binds”.

B2: Phage bearing the TF56 peptide sequence … (Pool E clone, polyvalent phage display) (peptide)
peptide: EAALCDDPRLDRWYCIFAGE
In the case of B2, the binding [2] is reported as “binds”.
